Data as given in article doi:10.1101/2024.04.30.591961.
Read-outs that look alike come from different tables or passages of the source. Results are given in words; binding and its absence hold for the method and conditions named. For some of these results: Binding seen in cells or lysates may run through a third protein. Some entries that bind do so weakly or less than the wild type. For some of these results: Where a sequence is shown, tags or fusion partners need not be part of it.

Assays:
HsPEX39-FLAG-HA (human) [1] = molecular target: HsPEX39-FLAG-HA (human) (UniProt Q5I0X4); experiment: co-IP
HsPEX39-FLAG-HA (human) [2] = molecular target: HsPEX39-FLAG-HA (human) (UniProt Q5I0X4); experiment: co-IP; remark: listed apart in the source
[3] = molecular target: T1, radiolabeled H6PEX7 (human) (UniProt O00628); experiment: native gel or EMSA
T1 sequence (chain, [^35S]methionine label): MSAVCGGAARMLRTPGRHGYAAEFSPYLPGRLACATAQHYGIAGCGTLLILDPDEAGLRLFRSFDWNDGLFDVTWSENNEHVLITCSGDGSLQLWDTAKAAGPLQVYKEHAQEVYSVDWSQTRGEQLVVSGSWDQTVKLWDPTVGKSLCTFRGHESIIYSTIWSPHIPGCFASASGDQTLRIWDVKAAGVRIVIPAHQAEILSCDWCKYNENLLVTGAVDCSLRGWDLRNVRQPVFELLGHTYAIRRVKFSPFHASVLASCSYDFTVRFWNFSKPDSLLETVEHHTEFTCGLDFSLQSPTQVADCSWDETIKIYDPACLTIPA

[4] = molecular target: T1, radiolabeled H6PEX7 (human); experiment: native gel or EMSA; remark: listed apart in the source
[5] = molecular target: T1, radiolabeled H6PEX7 (human); experiment: native gel or EMSA; remark: listed apart in the source
PEX7-FLAG-HA (human) = molecular target: T2, PEX7-FLAG-HA (human) (UniProt O00628); experiment: co-IP
T2 sequence: T1 sequence (chain, [^35S]methionine label)

B1: endogenous PEX7 (receptor, UniProt O00628 1-323)
chain: T1 sequence (chain, [^35S]methionine label)
- binding (HsPEX39-FLAG-HA (human) [1]): binds
- binding (HsPEX39-FLAG-HA (human) [2]): binds

B2: HsPEX39(ΔC) (domain or fragment, UniProt Q5I0X4 1-70)
chain: MERPRSPQCSAPASASASVTLAQLLQLVQQGQELPGLEKRHIAAIHGEPTASRLPRRPKPWEAAALAESL
- binding [3]: binds
- binding [4]: binds
- binding [5]: binds

B3: calnexin (CANX) (protein, UniProt P27824 21-592)
chain: HDGHDDDVIDIEDDLDDVIEEVEDSKPDTTAPPSSPKVTYKAPVPTGEVYFADSFDRGTLSGWILSKAKKDDTDDEIAKYDGKWEVEEMKESKLPGDKGLVLMSRAKHHAISAKLNKPFLFDTKPLIVQYEVNFQNGIECGGAYVKLLSKTPELNLDQFHDKTPYTIMFGPDKCGEDYKLHFIFRHKNPKTGIYEEKHAKRPDADLKTYFTDKKTHLYTLILNPDNSFEILVDQSVVNSGNLLNDMTPPVNPSREIEDPEDRKPEDWDERPKIPDPEAVKPDDWDEDAPAKIPDEEATKPEGWLDDEPEYVPDPDAEKPEDWDEDMDGEWEAPQIANPRCESAPGCGVWQRPVIDNPNYKGKWKPPMIDNPSYQGIWKPRKIPNPDFFEDLEPFRMTPFSAIGLELWSMTSDIFFDNFIICADRRIVDDWANDGWGLKKAADGAAEPGVVGQMIEAAEERPWLWVVYILTVALPVFLVILFCCSGKKQTSGMEYKKTDAPQPDVKEEEEEKEEEKDKGDEEEEGEEKLEEKQKSDAEEDGGTVSQEEEDRKPKAEEDEILNRSPRNRKPRRE
- binding (PEX7-FLAG-HA (human)): no binding
- binding (HsPEX39-FLAG-HA (human) [2]): no binding
